Measured values taken from publication PMC4826214.
No constants are given. Whether binding was seen depends on the method and setting. Binding seen in cells or lysates may run through a third protein. Some results given as binding are weak or reduced against the parent protein; the word gives no strength.

T1: CD95 (death receptor Fas, APO-1) (human (endogenous in DU145)), P25445
T1 chain: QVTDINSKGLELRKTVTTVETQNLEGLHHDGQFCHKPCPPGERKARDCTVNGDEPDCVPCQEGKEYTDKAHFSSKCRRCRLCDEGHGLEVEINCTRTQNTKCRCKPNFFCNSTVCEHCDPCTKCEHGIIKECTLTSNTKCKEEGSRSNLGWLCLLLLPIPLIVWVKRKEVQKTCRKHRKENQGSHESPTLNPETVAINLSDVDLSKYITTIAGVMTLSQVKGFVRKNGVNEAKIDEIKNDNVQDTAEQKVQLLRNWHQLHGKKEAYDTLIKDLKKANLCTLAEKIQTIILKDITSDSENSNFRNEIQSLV

B1: caspase-8, active form (p26/24 and p18), Q14790 1-479 (enzyme)
chain: MDFSRNLYDIGEQLDSEDLASLKFLSLDYIPQRKQEPIKDALMLFQRLQEKRMLEESNLSFLKELLFRINRLDLLITYLNTRKEEMERELQTPGRAQISAYRVMLYQISEEVSRSELRSFKFLLQEEISKCKLDDDMNLLDIFIEMEKRVILGEGKLDILKRVCAQINKSLLKIINDYEEFSKERSSSLEGSPDEFSNGEELCGVMTISDSPREQDSESQTLDKVYQMKSKPRGYCLIINNHNFAKAREKVPKLHSIRDRNGTHLDAGALTTTFEELHFEIKPHDDCTVEQIYEILKIYQLMDHSNMDCFICCILSHGDKGIIYGTDGQEAPIYELTSQFTGLKCPSLAGKPKVFFIQACQGDNYQKGIPVETDSEEQPYLEMDLSSPQTRYIPDEADFLLGMATVNNCVSYRNPAEGTWYIQSLCQSLRERCPRGDDILTILTEVNYEVSNKDDKKNMGKQMPQPTFTLRKKLVFPSD
B2: Fas-associated death domain-containing protein (FADD), Q13158 1-208 (protein)
chain: MDPFLVLLHSVSSSLSSSELTELKFLCLGRVGKRKLERVQSGLDLFSMLLEQNDLEPGHTELLRELLASLRRHDLLRRVDDFEAGAAAGAAPGEEDLCAAFNVICDNVGKDWRRLARQLKVSDTKIDSIEDRYPRNLTERVRESLRIWKNTEKENATVAHLVGALRSCQMNLVADLVQEVQQARDLQNRSGAMSPMSWNSDASTSEAS

Target: T1, CD95 (death receptor Fas, APO-1) (human …)
Assay: co-IP; 400 ug total protein of DU145 cells (RIPA buffer) immunoprecipitated with a rabbit CD95 antibody; SDS-PAGE and Western blot with mouse caspase-8 (active format) and FADD antibodies; cells treated 48 hr with Sild (10 uM) and/or DOX (0.5 uM)
Details: remark: other sources report otherwise

| Binder | binding |
| --- | --- |
| B1 | binds |
| B2 | binds |
